Source: the ROBIN nucleic acid binder screens (doi:10.1002/anie.202211358).

Targets (5′ to 3′):
T1: TPP riboswitch RNA three-way junction, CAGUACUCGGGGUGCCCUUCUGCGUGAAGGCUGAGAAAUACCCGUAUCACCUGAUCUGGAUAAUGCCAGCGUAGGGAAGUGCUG. About 24,000 compounds screened, about 160 hits.
T2: PreQ1 riboswitch RNA pseudoknot, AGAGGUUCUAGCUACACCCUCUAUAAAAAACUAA. From B. subtilis. About 24,000 compounds screened, about 170 hits.
T3: SAM-II riboswitch RNA pseudoknot, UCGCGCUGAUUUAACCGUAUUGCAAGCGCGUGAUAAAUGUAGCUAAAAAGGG. About 21,000 compounds screened, about 200 hits.

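The test is a small-molecule microarray: each compound is printed twice on a reactive slide, and binding shows as fluorescence of the labelled oligonucleotide after washing. The data file lists only calls. An earlier report of the laboratory on the PreQ1, TPP and SAM-II riboswitches (doi:10.1038/s41467-019-09493-3) used 1 µM RNA for 2 h and required a mean Z-score above 3 (spot signal-to-noise against the whole library), a score well above that on a control array, and duplicate spots agreeing (coefficient of variation under 100); it then also set aside compounds that hit other targets, which this list keeps. The cut-offs behind this list may differ. A missing hit is not proof of no binding, and a hit is not a measured affinity.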
A compound is marked hit if it was called a hit and no hit if it was screened but was not.
Compounds were drawn at random from those tested, without regard to their results.
A dash means that no call is listed here.

| Compound | T1 | T2 | T3 |
|---|---|---|---|
| `Cc1ccc(-c2c(NCCC3=CCCCC3)c(=O)c2=O)cc1` | no hit | no hit | - |
| `N#CC1=C(N)OC2=C(C1c1ccc(Cl)cc1)S(=O)(=O)N(Cc1ccccc1)c1ccccc12` (centres unmarked) | no hit | no hit | - |
| `C=CCN1CC(c2nc3ccccc3n2CC(O)COc2ccc(C)cc2)CC1=O` (centres unmarked) | no hit | no hit | - |
| `Cc1cccc2cc(C(=O)N3CCC4(CC3)c3ccccc3CC4O)n(C)c12` (centres unmarked) | no hit | no hit | no hit |
| `CCOc1ccc(CCNc2nc3ccccc3nc2C(=O)OC)cc1OCC` | no hit | no hit | no hit |
| `Nc1nc2n(n1)[C@@H](c1ccc(OCc3ccccc3)cc1)C[C@@H](c1ccccc1Cl)N2` | no hit | no hit | no hit |
| `N#Cc1cccc(Nc2c3c(nc4ccccc24)CCCC3)c1` | no hit | no hit | no hit |
| `CCOc1ccc(CN(CCOC)C(=O)C2CCNC2)cc1` (centres unmarked) | no hit | no hit | no hit |
| `CN1C(=O)CC(NCCc2ccc(S(N)(=O)=O)cc2)C1=O` (centres unmarked) | no hit | no hit | no hit |
| `CCNc1nc(N2CCCCCC2)nc(-n2cnc(SC)n2)n1` | no hit | no hit | - |
| `Cc1ccccc1Nc1c(-c2ccsc2)nc2ccccn12` | no hit | no hit | no hit |
| `Cc1ncnc(NCC(O)c2ccc(Cl)cc2)c1C` (centres unmarked) | no hit | no hit | no hit |
| `CC(C)CC(NC1CCS(=O)(=O)C1)C(=O)O` (centres unmarked) | no hit | no hit | no hit |
| `CNCCN1C(=O)CC[C@H]2CN(C(=O)N3CCOCC3)CC[C@H]21` | no hit | no hit | no hit |

Some entries from above, unchanged:

Compound,T1,T2,T3
CCOc1ccc(CCNc2nc3ccccc3nc2C(=O)OC)cc1OCC,no hit,no hit,no hit
CC(C)CC(NC1CCS(=O)(=O)C1)C(=O)O (centres unmarked),no hit,no hit,no hit